{"source": "PubChem BioAssay AID602196 | INSERM – 2012", "assay": "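Modifiers of cisplatin sensitivity in A549 cells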", "cells": "human A549 lung cancer cells", "knock-down reagent": "siRNA pair against human genes", "duration": "48 h transfection before cisplatin; time from cisplatin to read-out not stated", "conditions": "cisplatin at a dose killing half of control-siRNA cells; exact dose and duration not given", "measured": "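Cisplatin cell death as a shift from the 50% death seen with control siRNA; siRNAs toxic or growth-blocking alone scored 0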", "reading the numbers": "two-siRNA summed score (-2 to +2): higher = both siRNAs protect from cisplatin killing; -2 means both sensitise", "active means": "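siRNAs harmful alone (LDH or WST-1) get 0; others get +1 for less and -1 for more cisplatin killing; genes are active when the two siRNAs give the same sign, summing to ±2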", "meaning of the calls": "active = both siRNAs shift cisplatin killing the same way; inactive = no consistent shift, or siRNA harmful alone", "note": "The whole screen tested about 23,000 reagents; shown is a random part of them. 455 of them (2%) were called active. 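Active includes both protection and sensitisation; some change values fall well beyond the stated -50 to +50 range.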 A number with no mark means an inactive call. Not all columns of the deposit are shown. No sequences are given here. The record does not give: the amount of reagent."}
{"gene symbol": "LOC441378", "two-siRNA summed score (-2 to +2)": 0}
{"gene symbol": "HEG1", "two-siRNA summed score (-2 to +2)": 0}
{"gene symbol": "PPIL2", "two-siRNA summed score (-2 to +2)": -1}
{"gene symbol": "RNF135", "two-siRNA summed score (-2 to +2)": -1}
{"gene symbol": "TEX9", "two-siRNA summed score (-2 to +2)": 0}
{"gene symbol": "HTR1B", "two-siRNA summed score (-2 to +2)": -1}
{"gene symbol": "PDE4B", "two-siRNA summed score (-2 to +2)": 0}
{"gene symbol": "NDE1", "two-siRNA summed score (-2 to +2)": 0}
{"gene symbol": "GDI1", "two-siRNA summed score (-2 to +2)": 0}
{"gene symbol": "TRIM35", "two-siRNA summed score (-2 to +2)": -1}
{"gene symbol": "TRDN", "two-siRNA summed score (-2 to +2)": 0}
{"gene symbol": "APBB1", "two-siRNA summed score (-2 to +2)": 1}
{"gene symbol": "SKIC3", "two-siRNA summed score (-2 to +2)": 1}
{"gene symbol": "ANO9", "two-siRNA summed score (-2 to +2)": 1}
{"gene symbol": "SYN3", "two-siRNA summed score (-2 to +2)": 0}
{"gene symbol": "GUSBP1", "two-siRNA summed score (-2 to +2)": 0}
{"gene symbol": "LOC442375", "two-siRNA summed score (-2 to +2)": 0}
{"gene symbol": "HGH1", "two-siRNA summed score (-2 to +2)": 0}
{"gene symbol": "TBC1D19", "two-siRNA summed score (-2 to +2)": -1}
{"gene symbol": "STAT2", "two-siRNA summed score (-2 to +2)": -1}
{"gene symbol": "UTP11", "two-siRNA summed score (-2 to +2)": 0}

Entries listed so far whose gene name starts with G or g (2):
{"gene symbol": "GDI1", "two-siRNA summed score (-2 to +2)": 0}
{"gene symbol": "GUSBP1", "two-siRNA summed score (-2 to +2)": 0}
